Values of other authors as cited in patent US20060252026A1, “Cryopreservation method for bivalve oocytes” (priority 2005, published 2006).
Some of these results come from one statement about several compounds together.

Tested on: oyster embryos
Details: cryoprotectant, two-step freezing procedure; cited from earlier work

| SMILES | survival rates for cryopreserved oyster embryos |
| --- | --- |
| C[S+](C)[O-] [Me2SO, dimethyl sulfoxide] | up to 80% |
| OCC(O)CO [glycerol] | up to 80% |
